Laboratory results published in PubChem BioAssay AID330 (DTP/NCI, 2004).
The list shows only some results of the screen, not a fair sample: it covers a few groups of compounds. Not every dose and run of a compound is shown. T/C gives the treated animals as a percentage of the vehicle group. Where survival is the endpoint, the PubChem record calls one and a half times the control and up active, and a quarter to a half above the control has no call in these data; cut-offs in other NCI protocols can differ. Schedules are NCI's codes, taken here to give the interval after Q, in days (D) or hours (H), and the number of doses after X. Some T/C values are marked as having no survivor count here; that says nothing about deaths at the dose.

System: P388 leukemia ip, CD2F1 mice, survival T/C
Test: NCI In Vivo Anticancer Drug Screen. Data for tumor model P388 Leukemia (intraperitoneal) in CD2F1 (CDF1) mice
Settings: T/C endpoint: median survival time, higher T/C = longer survival

Question: What does the source list for `CC(=O)OC[C@]12C[C@H](OC(=O)CC(C)C)C(C)=C[C@H]1OC1[C@H](O)[C@@H](OC(C)=O)[C@@]2(C)[C@@]12CO2`?
Answer: T/C (dose: 0.06 mg/kg/injection, schedule: Q03HX008 (ip), vehicle: Klucel (hydroxypropylcellulose) (HPC)): 130 % of control [survivor count not shown]; T/C (dose: 0.06 mg/kg/injection, schedule: Q03HX016 (ip), vehicle: Klucel (hydroxypropylcellulose) (HPC)): 110 % of control [survivor count not shown]; T/C (dose: 0.06 mg/kg/injection, schedule: Q03HX024 (ip), vehicle: Klucel (hydroxypropylcellulose) (HPC)): 120 % of control [survivor count not shown]; T/C (dose: 0.08 mg/kg/injection, schedule: Q01DX009 (ip), vehicle: saline with Tween-80): 131 % of control [survivor count not shown]; T/C (dose: 0.13 mg/kg/injection, schedule: Q01DX009 (ip), vehicle: Klucel (hydroxypropylcellulose) (HPC)): 145 % of control [survivor count not shown]; T/C (dose: 0.13 mg/kg/injection, schedule: Q01DX009 (sc), vehicle: Klucel (hydroxypropylcellulose) (HPC)): 110 % of control [survivor count not shown]; T/C (dose: 0.15 mg/kg/injection, schedule: Q01DX009 (ip), vehicle: saline with Tween-80): 142 % of control [survivor count not shown]; T/C (dose: 0.25 mg/kg/injection, schedule: Q01DX009 (ip), vehicle: Klucel (hydroxypropylcellulose) (HPC), evaluated on day 30): 127 % of control [survivor count not shown]; T/C (dose: 0.25 mg/kg/injection, schedule: Q01DX009 (ip), vehicle: Klucel (hydroxypropylcellulose) (HPC), evaluated on day 60): 170 % of control [survivor count not shown]; T/C (dose: 0.25 mg/kg/injection, schedule: Q01DX009 (sc), vehicle: Klucel (hydroxypropylcellulose) (HPC)): 145 % of control [survivor count not shown]; T/C (dose: 0.3 mg/kg/injection, schedule: Q01DX009 (ip), vehicle: saline with Tween-80): 147 % of control [survivor count not shown]; T/C (dose: 0.5 mg/kg/injection, schedule: Q01DX001 (ip), vehicle: Klucel (hydroxypropylcellulose) (HPC)): 120 % of control [survivor count not shown]; T/C (dose: 0.5 mg/kg/injection, schedule: Q01DX009 (ip), vehicle: Klucel (hydroxypropylcellulose) (HPC), evaluated on day 30): 140 % of control [survivor count not shown]; T/C (dose: 0.5 mg/kg/injection, schedule: Q01DX009 (ip), vehicle: Klucel (hydroxypropylcellulose) (HPC), evaluated on day 60): 185 % of control [survivor count not shown]; T/C (dose: 0.5 mg/kg/injection, schedule: Q01DX009 (oral), vehicle: Klucel (hydroxypropylcellulose) (HPC)): 110 % of control [survivor count not shown]; T/C (dose: 0.5 mg/kg/injection, schedule: Q01DX009 (sc), vehicle: Klucel (hydroxypropylcellulose) (HPC)): 170 % of control [survivor count not shown]; T/C (dose: 0.5 mg/kg/injection, schedule: Q04DX003 (ip), vehicle: Klucel (hydroxypropylcellulose) (HPC)): 150 % of control [survivor count not shown]; T/C (dose: 0.5 mg/kg/injection, schedule: Q08DX002 (ip), vehicle: Klucel (hydroxypropylcellulose) (HPC)): 120 % of control [survivor count not shown]; T/C (dose: 0.6 mg/kg/injection, schedule: Q01DX009 (ip), vehicle: saline with Tween-80): 177 % of control [survivor count not shown]; T/C (dose: 1.0 mg/kg/injection, schedule: Q01DX001 (ip), vehicle: Klucel (hydroxypropylcellulose) (HPC)): 130 % of control [survivor count not shown]; T/C (dose: 1.0 mg/kg/injection, schedule: Q01DX009 (ip), vehicle: Klucel (hydroxypropylcellulose) (HPC), evaluated on day 30): 200 % of control [survivor count not shown]; T/C (dose: 1.0 mg/kg/injection, schedule: Q01DX009 (ip), vehicle: Klucel (hydroxypropylcellulose) (HPC), evaluated on day 60): 195 % of control [survivor count not shown]; T/C (dose: 1.0 mg/kg/injection, schedule: Q04DX003 (ip), vehicle: Klucel (hydroxypropylcellulose) (HPC)): 170 % of control [survivor count not shown]; T/C (dose: 1.0 mg/kg/injection, schedule: Q08DX002 (ip), vehicle: Klucel (hydroxypropylcellulose) (HPC)): 130 % of control [survivor count not shown]; T/C (dose: 1.2 mg/kg/injection, schedule: Q01DX009 (ip), vehicle: saline with Tween-80): 209 % of control [survivor count not shown]; T/C (dose: 2.0 mg/kg/injection, schedule: Q01DX001 (ip), vehicle: Klucel (hydroxypropylcellulose) (HPC)): 135 % of control [survivor count not shown]; T/C (dose: 2.0 mg/kg/injection, schedule: Q01DX009 (ip), vehicle: Klucel (hydroxypropylcellulose) (HPC)): 240 % of control [survivor count not shown]; T/C (dose: 2.0 mg/kg/injection, schedule: Q01DX009 (oral), vehicle: Klucel (hydroxypropylcellulose) (HPC)): 180 % of control [survivor count not shown]; T/C (dose: 2.0 mg/kg/injection, schedule: Q04DX003 (ip), vehicle: Klucel (hydroxypropylcellulose) (HPC)): 190 % of control [survivor count not shown]; T/C (dose: 2.0 mg/kg/injection, schedule: Q08DX002 (ip), vehicle: Klucel (hydroxypropylcellulose) (HPC)): 150 % of control [survivor count not shown]; T/C (dose: 4.0 mg/kg/injection, schedule: Q01DX001 (ip), vehicle: Klucel (hydroxypropylcellulose) (HPC)): 140 % of control [survivor count not shown]; T/C (dose: 4.0 mg/kg/injection, schedule: Q04DX003 (ip), vehicle: Klucel (hydroxypropylcellulose) (HPC)): 190 % of control [survivor count not shown]; T/C (dose: 4.0 mg/kg/injection, schedule: Q08DX002 (ip), vehicle: Klucel (hydroxypropylcellulose) (HPC)): 150 % of control [survivor count not shown]; T/C (dose: 8.0 mg/kg/injection, schedule: Q01DX001 (ip), vehicle: Klucel (hydroxypropylcellulose) (HPC)): 150 % of control [survivor count not shown]

Question: `CC1=C[C@H]2O[C@@H]3C[C@H]4OC(=O)/C=C\C=C\C(C(C)O)OCC(O)C(C)CC(=O)OC[C@@]2(C[C@@H]1O)[C@]4(C)[C@@]31CO1` (some centres undefined) was tested. Which T/C (dose: 0.25 mg/kg/injection, schedule: Q01DX009 (ip), vehicle: Klucel (hydroxypropylcellulose) (HPC)) did it give?
Answer: 155 % of control [survivor count not shown]

Question: And the T/C (dose: 0.31 mg/kg/injection, schedule: Q01DX009 (ip), vehicle: Klucel (hydroxypropylcellulose) (HPC))?
Answer: 172 % of control [survivor count not shown]

Question: And the T/C (dose: 0.5 mg/kg/injection, schedule: Q01DX009 (ip), vehicle: Klucel (hydroxypropylcellulose) (HPC))?
Answer: 129 % of control [survivor count not shown]

Question: What about the T/C (dose: 0.63 mg/kg/injection, schedule: Q01DX009 (ip), vehicle: Klucel (hydroxypropylcellulose) (HPC)) of the same molecule?
Answer: 173 % of control [survivor count not shown]

Question: And the T/C (dose: 1.0 mg/kg/injection, schedule: Q01DX009 (ip), vehicle: Klucel (hydroxypropylcellulose) (HPC))?
Answer: 163 % of control [survivor count not shown]

Question: And the T/C (dose: 7.5 micrograms/kg/injection, schedule: Q01DX009 (ip), vehicle: saline + alcohol)?
Answer: 102 % of control [survivor count not shown]

Question: What about the T/C (dose: 15.0 micrograms/kg/injection, schedule: Q01DX009 (ip), vehicle: saline + alcohol) of the same molecule?
Answer: 124 % of control [survivor count not shown]

Question: And the T/C (dose: 31.0 micrograms/kg/injection, schedule: Q01DX009 (ip), vehicle: saline + alcohol)?
Answer: 138 % of control [survivor count not shown]

Question: And the T/C (dose: 62.0 micrograms/kg/injection, schedule: Q01DX009 (ip), vehicle: saline + alcohol)?
Answer: 142 % of control [survivor count not shown]

Question: And the T/C (dose: 125.0 micrograms/kg/injection, schedule: Q01DX009 (ip), vehicle: saline + alcohol)?
Answer: 161 % of control [survivor count not shown]

Question: And the T/C (dose: 250.0 micrograms/kg/injection, schedule: Q01DX009 (ip), vehicle: saline + alcohol)?
Answer: 180 % of control [survivor count not shown]

Question: And the T/C (dose: 312.0 micrograms/kg/injection, schedule: Q01DX009 (ip), vehicle: Klucel (hydroxypropylcellulose) (HPC))?
Answer: 142 % of control [survivor count not shown]

Question: What about the T/C (dose: 500.0 micrograms/kg/injection, schedule: Q01DX009 (ip), vehicle: saline + alcohol) of the same molecule?
Answer: 196 % of control [survivor count not shown]

Question: What about the T/C (dose: 625.0 micrograms/kg/injection, schedule: Q01DX009 (ip), vehicle: Klucel (hydroxypropylcellulose) (HPC)) of the same molecule?
Answer: 149 % of control [survivor count not shown]

Question: And the T/C (dose: 1000.0 micrograms/kg/injection, schedule: Q01DX009 (ip), vehicle: saline + alcohol)?
Answer: 214 % of control [survivor count not shown]
